{
  "source": "PubChem BioAssay AID1347075",
  "about": "(National Center for Advancing Translational Sciences (NCATS), 2019)",
  "note": "The whole screen tested about 400,000 compounds, of which about 5,500 (1.4%) were called active. The inconclusive results got no clear call from the source; some entries with a clear call stand among them for comparison. Calls come from the whole dose curve; as a rule, active = well fitted cell-killing curve with a large enough effect; inconclusive = small, poorly fitted or top-dose-only effect, or effect the other way; inactive = flat fitted curve, though single readings scatter. Where the call is inconclusive, the potency comes from a doubtful curve fit. % is set by controls: 0 for no effect and ±100 for the full control effect; potency is the fitted concentration of half-maximal effect.",
  "data": [
    {"test": "qHTS assay for MDR1-selective chemotherapeutics: Primary screen using the parental adenocarcinoma cell KB-3-1; note: nearly all actives have a fitted effect of over 60% in size", "settings": "KB-3-1 viability, CellTiter-Glo ATP luminescence, 72 h; activity change, negative = cytotoxic: at 46.1 µM (top of the series)", "summary_of_the_method": "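Using CellTiter-Glo luminescence, growth of non-resistant KB-3-1 adenocarcinoma cells is assessed 72 h after pin-tool compound addition at 37 °C. Normalized responses across the concentration series yield fitted curves.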", "values": [
      {"smiles": "FC(F)(F)c1cc(-c2cccs2)nc2ncnn12", "Potency": "inconclusive: 29.1 µM [rising, single point]"},
      {"smiles": "COc1ccc(C(=O)NC(C)c2ccc(-n3ccnc3)cc2)c(OC)c1", "note": "(stereo unspecified)", "activity change, negative = cytotoxic": "inactive: -8.55%"},
      {"smiles": "Cc1ccc(C)c(Cn2c(=O)n(CCCC(=O)NCc3ccco3)c(=O)c3ccccc32)c1", "Potency": "inconclusive: 23.1 µM [cytotoxic, single point]"},
      {"smiles": "Cc1[nH]c(C)c(S(=O)(=O)NCC(C)c2ccccc2)c1C(=O)N1CCCCC1", "note": "(stereo unspecified)", "activity change, negative = cytotoxic": "inactive: -4.71%"},
      {"smiles": "Cc1cc(C)c(C(=O)/C=C/c2ccc3c(c2)OCO3)c(=O)[nH]1", "Potency": "inconclusive: 20.6 µM [cytotoxic, single point]"},
      {"smiles": "O=C(c1ccc(F)cc1)n1nc(-c2ccccc2)nc1NCc1ccc(F)cc1", "Potency": "inconclusive: 8.2 µM [rising, partial curve, poor fit]"},
      {"smiles": "CCC/C(=C1/c2ccccc2C(=O)N1c1ccccc1)c1ccc2c(c1)OCCO2", "Potency": "inconclusive: 29.1 µM [cytotoxic, single point]"},
      {"smiles": "Cc1ccn2c(=O)nc(SCC(=O)N3CCCCC3)nc2c1", "activity change, negative = cytotoxic": "inactive: 2.44%"},
      {"smiles": "Cc1cc(C(F)(F)F)n2nc(-c3sccc3-n3cccc3)cc2n1", "activity change, negative = cytotoxic": "inactive: -3.45%"},
      {"smiles": "CN1CCN(NC(=O)c2cc(-c3ccc(Br)s3)nc3ccccc23)CC1", "activity change, negative = cytotoxic": "inactive: -0.165%"},
      {"smiles": "O=C(C1CCCCN1S(=O)(=O)c1ccccc1)N1CCN(Cc2ccccc2)CC1", "note": "(stereo unspecified)", "Potency": "inconclusive: 29.1 µM [cytotoxic, single point]"},
      {"smiles": "O=C(Nc1nnc(C2CC2)o1)c1ccc(S(=O)(=O)N2CCc3ccccc3C2)cc1", "activity change, negative = cytotoxic": "inactive: -16%"},
      {"smiles": "Cc1ccc(Nc2c(-c3ccccn3)nc3cccc(C)n23)cc1", "Potency": "active: 5.17 µM"},
      {"smiles": "CCC1CCC2(CC1)NC(=O)N(CC(=O)Nc1cccc(S(=O)(=O)N(C)c3ccccc3)c1)C2=O", "note": "(stereo unspecified)", "Potency": "inconclusive: 32.6 µM [cytotoxic, partial curve, poor fit]"},
      {"smiles": "CCN(CC(=O)NCc1ccc(F)cc1)C(=O)/C=C/c1ccc(OC)c(S(=O)(=O)NC(C)C)c1", "Potency": "active: 2.59 µM"},
      {"smiles": "Cc1cc(C)c(C)c(C(=O)CSc2nnc(-c3ccc4[nH]c(C)c(C)c4c3)o2)c1C", "activity change, negative = cytotoxic": "inactive: -27%"},
      {"smiles": "CC1(C)NC(=O)N(CCCCOc2ccc3ccccc3c2Cl)C1=O", "Potency": "inconclusive: 29.1 µM [cytotoxic, single point]"},
      {"smiles": "CC(C)NC(=S)NC(=O)c1ccc(-c2ccccc2)cc1", "Potency": "inconclusive: 29.1 µM [cytotoxic, single point]"},
      {"smiles": "Cc1cc(N2CCN(C(=O)c3ccco3)CC2)c2ccccc2n1", "Potency": "inconclusive: 3.26 µM [cytotoxic, full curve, poor fit]"},
      {"smiles": "O=C(NCc1ccc2c(c1)OCO2)C(=O)Nc1cc2c3c(c1)CC(=O)N3CCC2", "Potency": "inconclusive: 29.1 µM [rising, single point]"},
      {"smiles": "COCCNC(=O)c1cc(-c2ccc(Cl)c(Cl)c2)on1", "Potency": "inconclusive: 0.461 µM [rising, full curve, poor fit]"},
      {"smiles": "O=C(NCCN1CCC(n2c(=O)[nH]c3ccccc32)CC1)c1cccnc1Cl", "activity change, negative = cytotoxic": "inconclusive: 1.27%"},
      {"smiles": "Cc1nc2ccccc2c(=O)n1/N=C/c1c(O)ccc2oc3c(c12)CCCC3", "Potency": "inconclusive: 29.1 µM [cytotoxic, single point]"},
      {"smiles": "Clc1ccc(C2=Nn3c(nnc3-c3cc(-c4ccccc4)n[nH]3)SC2)cc1", "Potency": "inconclusive: 29.1 µM [cytotoxic, single point]"},
      {"smiles": "Cc1cc(OCC(=O)Nc2cccnc2)c2c(C)cc(=O)oc2c1", "Potency": "inconclusive: 2.06 µM [rising, full curve]"},
      {"smiles": "CC1Sc2ccc(S(=O)(=O)N3CCC(C(=O)Nc4ccc(Cl)cc4)CC3)cc2NC1=O", "note": "(stereo unspecified)", "Potency": "inconclusive: 6.51 µM [cytotoxic, full curve, poor fit]"},
      {"smiles": "Cc1ccc(C(NC(=O)C2CCN(CCOc3ccc(Cl)cc3Cl)CC2)c2ccccn2)cc1", "note": "(stereo unspecified)", "Potency": "inconclusive: 18.4 µM [cytotoxic, single point]"},
      {"smiles": "O=C(Oc1ccc(Br)cc1)C1CCN(C2=NS(=O)(=O)c3ccccc32)CC1", "Potency": "inconclusive: 11.6 µM [rising, partial curve, poor fit]"},
      {"smiles": "CCOc1ccc(N(C)C(CNS(=O)(=O)c2ccccc2)c2ccccc2)cc1", "note": "(stereo unspecified)", "Potency": "inconclusive: 23.1 µM [cytotoxic, single point]"},
      {"smiles": "c1ccc(-c2cc(N3CCCCC3)nc(-c3ccccc3)n2)cc1", "Potency": "inconclusive: 29.1 µM [rising, partial curve, poor fit]"},
      {"smiles": "O=C(Nc1ccon1)c1ccc(F)c(S(=O)(=O)N2CCCCC2)c1", "activity change, negative = cytotoxic": "inactive: 2.02%"},
      {"smiles": "COCc1ccc(C(=O)N2CCCC(N3CCN(c4ccc(F)cc4)CC3)C2)o1", "note": "(stereo unspecified)", "activity change, negative = cytotoxic": "inactive: -0.172%"},
      {"smiles": "CCOc1ccc(C(=O)Nc2cc(-c3nc4ccccc4s3)ccc2OC)cc1", "Potency": "inconclusive: 18.4 µM [cytotoxic, single point]"},
      {"smiles": "Cc1ccsc1C1C(C#N)=C(N)Oc2n[nH]c(C)c21", "note": "(stereo unspecified)", "activity change, negative = cytotoxic": "inactive: -19.8%"},
      {"smiles": "COc1ccc(-n2cnc3c(cnn3CCC#N)c2=N)cc1", "Potency": "inconclusive: 25.9 µM [rising, single point]"},
      {"smiles": "COc1ccc(Cn2c(=O)n(Cc3ccco3)c(=N)c3c4c(sc32)COC(C)(C)C4)cc1", "Potency": "inconclusive: 18.4 µM [cytotoxic, single point]"},
      {"smiles": "N#Cc1cccc(NC(=O)c2cc3c(s2)-c2ccc(Cl)cc2SC3)c1", "Potency": "inconclusive: 23.1 µM [cytotoxic, partial curve]"},
      {"smiles": "COc1ccccc1N1CCN(C(=O)c2cc(-c3ccccc3O)on2)CC1", "Potency": "inconclusive: 23.1 µM [cytotoxic, single point]"},
      {"smiles": "Cc1nc(-c2ccc(S(=O)(=O)Nc3ccc(C)c(N(C)C)c3)cc2)co1", "Potency": "active: 18.4 µM"},
      {"smiles": "COCCNC(=O)C1CCCN(C(=O)c2oc3ccccc3c2C)CC1", "note": "(stereo unspecified)", "activity change, negative = cytotoxic": "inactive: 0%"},
      {"smiles": "CCc1ccc(N2CC(C(=O)Nc3cccnc3)CC2=O)cc1", "note": "(stereo unspecified)", "activity change, negative = cytotoxic": "inactive: -7.4%"},
      {"smiles": "CCc1nn(CC(=O)NCc2ccccc2Cl)c(=O)c2cccn12", "Potency": "inconclusive: 0.146 µM [rising, full curve]"},
      {"smiles": "Cc1ccc(SCC(=O)OCC(=O)NCc2ccco2)cc1", "activity change, negative = cytotoxic": "inactive: 1.18%"},
      {"smiles": "O=C(OCn1ncc(Br)c(Br)c1=O)c1ccccc1Cl", "Potency": "active: 18.4 µM"},
      {"smiles": "CC(C(=O)N(C)C1CCS(=O)(=O)C1)N1C(=O)/C(=C/c2cccs2)SC1=S", "note": "(stereo unspecified)", "Potency": "inconclusive: 23.1 µM [cytotoxic, partial curve, poor fit]"},
      {"smiles": "CC(=O)O[C@H]1C(=O)[C@@]2(C)[C@H]([C@H](OC(=O)c3ccccc3)[C@]3(O)C[C@H](OC(=O)[C@H](O)C(NC(=O)c4ccccc4)c4ccccc4)C(C)=C1C3(C)C)[C@]1(OC(C)=O)CO[C@@H]1C[C@@H]2O", "note": "(stereo partly specified)", "Potency": "active: 0.0092 µM"},
      {"smiles": "CCCCN=C1NN=C(c2cccc([N+](=O)[O-])c2)CS1", "Potency": "inconclusive: 29.1 µM [cytotoxic, single point]"},
      {"smiles": "COc1ccc(NC(=O)c2cnc[nH]2)cc1", "Potency": "inconclusive: 29.1 µM [cytotoxic, single point]"},
      {"smiles": "CC(=O)Nc1sc2c(c1-c1nc3ccccc3s1)CN(C(C)C)CC2", "Potency": "inconclusive: 29.1 µM [cytotoxic, single point]"},
      {"smiles": "O=C(/C=C/[C@H]1O[C@@H](n2ccc(=O)[nH]c2=O)[C@H](O)[C@@H]1O)NCCCc1ccccc1", "activity change, negative = cytotoxic": "inactive: 0.0302%"},
      {"smiles": "O=C(CN1CCCN(S(=O)(=O)c2ccc(Br)s2)CC1)Nc1ccc(Cl)cc1", "Potency": "inconclusive: 29.1 µM [cytotoxic, single point]"},
      {"smiles": "O=C(CSCc1cnn(-c2ccccc2)c1-n1cccc1)NCC1CCCO1", "note": "(stereo unspecified)", "activity change, negative = cytotoxic": "inactive: -10.7%"},
      {"smiles": "CC(=O)N=c1c(C#N)cc2c(=O)n3ccccc3nc2n1Cc1ccccc1", "activity change, negative = cytotoxic": "inactive: 6.76%"},
      {"smiles": "CC(=O)Oc1cc2oc(=O)cc(C)c2cc1OC(C)=O", "Potency": "inconclusive: 20.6 µM [cytotoxic, partial curve]"},
      {"smiles": "COc1ccc([C@H]2C[C@@H](n3cc(C4CC4)nn3)[C@H](O)CN2Cc2cccs2)cc1", "Potency": "inconclusive: 14.6 µM [cytotoxic, partial curve]"},
      {"smiles": "O=C1C2=C(NC(=S)NC2c2ccc(Cl)cc2)NC(c2ccc(Cl)cc2)N1c1ccc(Cl)cc1", "note": "(stereo unspecified)", "Potency": "active: 16.4 µM"},
      {"smiles": "O=C(O)CSc1cc(NS(=O)(=O)c2ccc(Cl)cc2)c2ccccc2c1O", "Potency": "inconclusive: 20.6 µM [cytotoxic, single point]"},
      {"smiles": "CCCCCCCNC(=O)C1(CC2CC(c3ccccc3)=NO2)CCNCC1", "note": "(stereo unspecified)", "Potency": "inconclusive: 29.1 µM [cytotoxic, single point]"},
      {"smiles": "Cc1nn(-c2cccc(Cl)c2)c2nc(C(F)(F)F)[nH]c(=O)c12", "activity change, negative = cytotoxic": "inactive: -4.14%"},
      {"smiles": "Cc1ccc(-n2c(O)c(C=Nc3cc(C)on3)c3ccccc3c2=O)c(C)c1", "Potency": "inconclusive: 25.9 µM [cytotoxic, single point]"},
      {"smiles": "O=C(c1ccccc1)N1N=C(C(F)(F)F)CC1(O)c1ccccc1O", "note": "(stereo unspecified)", "Potency": "inconclusive: 25.9 µM [cytotoxic, single point]"},
      {"smiles": "O=C(NCCOc1ccccc1)c1cc(C(=O)NCCOc2ccccc2)cc([N+](=O)[O-])c1", "Potency": "inconclusive: 5.17 µM [rising, full curve, poor fit]"},
      {"smiles": "O=C(Nc1cccc(Cl)c1)c1ccc(F)c(S(=O)(=O)N2CCC3(CC2)OCCO3)c1", "Potency": "inconclusive: 18.4 µM [cytotoxic, partial curve, poor fit]"},
      {"smiles": "O=C(Nc1ccc2oc(-c3ccncc3)nc2c1)c1ccc([N+](=O)[O-])o1", "Potency": "inconclusive: 23.1 µM [cytotoxic, partial curve, poor fit]"},
      {"smiles": "COc1ccc(-c2ccc(C(=O)Nc3ccc(OC)nc3)c3occc23)c(C)c1", "Potency": "inconclusive: 29.1 µM [cytotoxic, single point]"},
      {"smiles": "O=C(C1CCN(CCCc2ccccc2)CC1)N(CCc1ccccc1)Cc1ccccc1", "Potency": "inconclusive: 20.6 µM [cytotoxic, single point]"}
    ]}
  ]
}
